From publication PMC6773438 come the findings set out here.

The comparison behind a weaker result is the experiment's own reference, which may not be listed here. Protein sequences can lack the tags named with them.

Data set [1] addresses T1, Rv Dsup (Ramazzottius varieornatus (strain YOKOZUNA-1)) (UniProt P0DOW4).
T1 sequence (looked up): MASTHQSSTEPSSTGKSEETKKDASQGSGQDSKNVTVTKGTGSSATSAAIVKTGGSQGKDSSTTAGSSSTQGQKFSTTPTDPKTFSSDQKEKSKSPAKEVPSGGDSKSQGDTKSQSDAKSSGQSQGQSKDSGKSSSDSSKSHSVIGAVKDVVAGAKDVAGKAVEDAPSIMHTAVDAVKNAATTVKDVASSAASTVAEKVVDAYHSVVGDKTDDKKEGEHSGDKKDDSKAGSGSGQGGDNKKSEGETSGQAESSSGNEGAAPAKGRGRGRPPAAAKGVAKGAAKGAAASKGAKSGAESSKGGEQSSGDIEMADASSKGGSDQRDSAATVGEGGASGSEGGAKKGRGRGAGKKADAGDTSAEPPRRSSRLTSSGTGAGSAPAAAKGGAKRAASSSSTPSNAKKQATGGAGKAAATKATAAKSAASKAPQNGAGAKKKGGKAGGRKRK
As to the kind of experiment: EMSA. The following applies: no distinct shifted band; EMSA: 60 nM mononucleosomes, 25 mM Hepes-K+ pH 7.6, 0.1 mM EDTA, 10% glycerol, 100 mM KCl, 100 ng BSA in 15 uL, 30 C 30 min; H1 assays plus 0.05% NP-40 and 2 mM MgCl2; recombinant protein; residues 1-445; protein details: N-terminal His6, C-terminal FLAG. (In general: A gel shift assay detects complexes by their altered migration in electrophoresis.)

In data set [2] the target is T2, He Dsup (Hypsibius exemplaris (strain Z151)) (UniProt A0A1W0XB17).
T2 sequence (looked up): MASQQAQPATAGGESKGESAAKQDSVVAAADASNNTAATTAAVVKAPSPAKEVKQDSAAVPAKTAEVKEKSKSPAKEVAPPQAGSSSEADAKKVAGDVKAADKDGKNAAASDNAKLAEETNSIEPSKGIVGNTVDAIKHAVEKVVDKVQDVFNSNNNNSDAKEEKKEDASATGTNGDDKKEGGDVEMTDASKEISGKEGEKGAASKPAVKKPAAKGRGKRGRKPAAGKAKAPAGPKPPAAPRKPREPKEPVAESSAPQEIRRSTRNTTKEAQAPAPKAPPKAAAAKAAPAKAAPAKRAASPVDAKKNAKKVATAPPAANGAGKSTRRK
As to the kind of experiment: EMSA. The following applies: EMSA: 60 nM mononucleosomes, 25 mM Hepes-K+ pH 7.6, 0.1 mM EDTA, 10% glycerol, 100 mM KCl, 100 ng BSA in 15 uL, 30 C 30 min; H1 assays plus 0.05% NP-40 and 2 mM MgCl2; recombinant protein; residues 1-328; protein details: N-terminal His6, C-terminal FLAG.

As for “GCTTGTTTTCCTGCCTGGGGGAAAAGACCCTGGCATGGGGAGGAGCTGGGCCCCCCCCAGAAGGCAGCACAAGGGGAGGAAAAGTCAGCCTTGTGCTCGCCTACGGCCATACCACCCTGAAAGTGCCCGATATCGTCTGATCTCGGA (double strand) [X. borealis 5S rDNA 147 bp free DNA]”, the binding result in data set [1] and in data set [2] was “binds more weakly” throughout.
